{"source": "patent EP3909646A1", "about": "(priority 2020, dated 2021)", "key": {"ACE2 [1]": {"test_system": "ACE2", "test": "ACE2 protein ELISA from NHBE cell lysates", "format": "cell-based, human"}, "ACE2 [2]": {"test_system": "ACE2", "format": "cell-based, human"}, "TMPRSS2": {"test_system": "TMPRSS2", "format": "cell-based, human"}, "primary NHBE": {"test_system": "primary NHBE", "format": "cell-based, human"}, "SARS-CoV-2": {"test_system": "SARS-CoV-2", "format": "cell-based", "details": "for virus titers / infectious viral particles in supernatant (plaque forming units): 24h pre-treatment (1 µM icatibant or 10 µM hydrocortisone, with/without IFN-γ), then 24h SARS-CoV-2 inoculation, n=10, Fig.5A/B"}, "SARS-CoV-2 N1 RNA": {"test_system": "SARS-CoV-2 N1 RNA", "format": "cell-based", "details": "24h pre-treatment 1 µM icatibant, then 24h SARS-CoV-2; effect only seen in IFN-γ-naive cells, n=10, Fig.5G"}}, "note": "Entries after “also recorded” stand apart in the source; their conditions may differ. Where two headings read alike, the source gives them in different places. At least one peptide structure holds a part that was inferred or is arguable (an end, a ring closure or a residue)."}
{"smiles": "N=C(N)NCCC[C@@H](N)C(=O)N[C@@H](CCCNC(=N)N)C(=O)N1CCC[C@H]1C(=O)N1C[C@H](O)C[C@H]1C(=O)NCC(=O)N[C@@H](Cc1cccs1)C(=O)N[C@@H](CO)C(=O)N1Cc2ccccc2C[C@@H]1C(=O)N1[C@H](C(=O)N[C@@H](CCCNC(=N)N)C(=O)O)C[C@@H]2CCCC[C@@H]21", "note": "[icatibant]", "values": [{"measurement": "ACE2 protein levels (ELISA)", "setting": "ACE2 [1]", "result": "inhibited IFN-γ-triggered induction of ACE2; also recorded: still significantly reduced; also recorded: reduction of ACE2 was also detected on protein level, independent of co-stimulation with IFN-γ"}, {"measurement": "ACE2 gene expression (qPCR)", "setting": "ACE2 [2]", "result": "this regulation disappeared on the transcriptional level; also recorded: significantly prevented induction of ACE2 expression following infection"}, {"measurement": "TMPRSS2 gene expression (qPCR)", "setting": "TMPRSS2", "result": "significantly reduced the expression of TMPRSS2; also recorded: no significant downregulation of TMPRSS2"}, {"measurement": "APOBEC3A gene expression", "setting": "primary NHBE; Fig.4A", "result": "even increased"}, {"measurement": "known and potential virus entry receptors (gene expression)", "setting": "primary NHBE; Fig.4C", "result": "only moderate effects of the drugs on viral entry receptor, except of icatibant-mediated downregulation of CLEC4M and CD209"}, {"measurement": "cytokines of the acute phase response (gene expression)", "setting": "primary NHBE; Fig.8B", "result": "did not have significant effects on cytokines of the acute phase response"}, {"measurement": "genes upregulated by SARS-CoV-2-infection, but downregulated by drug", "setting": "primary NHBE; Venn diagram, Fig.3E", "result": 315, "unit": "genes"}, {"measurement": "genes reduced by SARS-CoV-2-infection, but increased by drug", "setting": "primary NHBE; Venn diagram, Fig.7C", "result": 13, "unit": "genes"}, {"measurement": "global gene expression changes", "setting": "primary NHBE; icatibant 1 µM or hydrocortisone 10 µM, volcano plots, Fig.3D", "result": "broad suppressive effect on gene expression in epithelial cells"}, {"measurement": "antiviral epithelial response (gene expression)", "setting": "primary NHBE; in general, Fig.4A", "result": "changes of the antiviral epithelial response were not induced"}, {"measurement": "genes that may support the cytokine storm (gene expression)", "setting": "primary NHBE; induced upon SARS-CoV-2-infection on the epithelial level", "result": "not significantly influenced"}, {"measurement": "antiviral response genes significantly downregulated", "setting": "primary NHBE; over all conditions, Fig.8A", "result": "only RSAD2, PTPRC, CXCL9 and CARD9 were significantly decreased"}, {"measurement": "transcripts regulated by both, hydrocortisone and icatibant", "setting": "primary NHBE; overlap of the two drugs, majority long non-coding RNAs, Fig.3E", "result": 86, "unit": "transcripts"}, {"measurement": "virus titers / infectious viral particles in supernatant (plaque forming units)", "setting": "SARS-CoV-2", "result": "blocked the production of infectious viral particles, in both, IFN-γ-co-stimulated and -unstimulated cells"}, {"measurement": "virus titers / infectious viral particles in supernatant (plaque forming units)", "setting": "SARS-CoV-2; listed as Icatibant", "result": "lower virus titers in the supernatant"}, {"measurement": "virus titers in supernatant (plaque forming units), rescue approach", "setting": "SARS-CoV-2; drug added 6h post-inoculation (1 µM icatibant or 10 µM hydrocortisone), n=4, Fig.5C/D", "result": "tends to rescue the effect of infection on cells in four donors with or without pre-stimulation with IFN-γ"}, {"measurement": "SARS-CoV-2 N1 RNA normalized to human ACTB", "setting": "SARS-CoV-2 N1 RNA", "result": "Lower levels of SARS-CoV-2 N1 RNA were detected"}]}
